Earlier results in patent publication US20210161146A1, “COMPOSITIONS AND METHODS FOR INHIBITING PATHOGENS ON PLANTS” (CH2O INCORPORATED, priority 2018, published 2021).
At least one structure is not confirmed: it was looked up by name or label, or the drawing left a doubt.

System: Erwinia amylovora ("Fire Blight")
Settings: before the ClO2 trial; cited from earlier work

CN(C)[C@@H]1C(O)=C(C(N)=O)C(=O)[C@@]2(O)C(O)=C3C(=O)c4c(O)cccc4[C@@](C)(O)[C@H]3[C@H](O)[C@@H]12 [Oxytetracycline]
outcome of previous treatments of the orchard: unsuccessful
